We go through 14 substances from US20240116984A1 (University of Notre Dame du Lac, priority 2021, published 2024).

Non-standard residues stand in square brackets, D forms with d. aIle = CC[C@@H](C)[C@H](N)C(=O)O

This data set in a line: general procedure: Fmoc solid-phase peptide synthesis; Fmoc-capped polystyrene rink amide MBHA resin (100-200 mesh); HCTU/NMM. The following applies: whole synthesis, scale of the general procedure 0.05-0.15 mmol.

The substance Ac-VQI[aIle]NK-NH2 returned an isolated yield of 75%.

Regarding Ac-VQ[aIle]INK-NH2, the isolated yield is recorded as 45%.

The substance Ac-VQ[aIle]VYK-NH2 showed an isolated yield of 55%.

The substance “Ac-Val-Gln-Ile-Val-Tyr-aLys-NH2 (VQIVYK; N-acetyl, C-amide, aza-amino acids; MOD_RES (1)..(1) N-term acetylation; MOD_RES (6)..(6) N-amination of the amino acid amide moiety; MOD_RES (6)..(6) C-term amidation)” returned an isolated yield of 99%.

On to Ac-Val-Gln-Ile-Val-aTyr-Lys-NH2, for which the isolated yield amounted to 38%.

On to Ac-Val-Gln-Ile-aVal-Tyr-Lys-NH2, for which the isolated yield came to 88%.

In the case of Ac-Val-Gln-Ile-aVal-Tyr-aLys-NH2, the isolated yield was found to be 42%.

In turn, Ac-Val-Gln-aIle-Val-aTyr-Lys-NH2 returned an isolated yield of 44%.

Substance Ac-aVal-Gln-Ile-Ile-Asn-Lys-NH2 yielded an isolated yield of 81%.

For the substance “Ac-aVal-Gln-Ile-Val-Tyr-Lys-NH2 (VQIVYK; N-acetyl, C-amide, aza-amino acids; MOD_RES (1)..(1) N-term acetylation; MOD_RES (1)..(1) N-amination of the amino acid amide moiety; MOD_RES (6)..(6) C-term amidation)”, the isolated yield came out at 88%.

In turn, Ac-aVal-Gln-Ile-Val-aTyr-Lys-NH2 yielded an isolated yield of 58%.

For the substance “Ac-aVal-Gln-aIle-Ile-Asn-Lys-NH2 (VQIINK; N-acetyl, C-amide, non-natural residues; MOD_RES (1)..(1) N-term acetylation; MOD_RES (1)..(1) N-amination of the amino acid amide moiety; MOD_RES (3)..(3) N-amination of the amino acid amide moiety; MOD_RES (6)..(6) C-term amidation)”, the isolated yield is on record as 81%.

“Ac-aVal-Gln-aIle-Val-Tyr-Lys-NH2 (VQIVYK; N-acetyl, C-amide, aza-amino acids; MOD_RES (1)..(1) N-term acetylation; MOD_RES (1)..(1) N-amination of the amino acid amide moiety; MOD_RES (3)..(3) N-amination of the amino acid amide moiety; MOD_RES (6)..(6) C-term amidation)”: the isolated yield was found to be 52%.

On to “Ac-aVal-Gln-aIle-Val-aTyr-Lys-NH2 (VQIVYQ; N-acetyl, C-amide, aza-amino acids; MOD_RES (1)..(1) N-term acetylation; MOD_RES (1)..(1) N-amination of the amino acid amide moiety; MOD_RES (3)..(3) N-amination of the amino acid amide moiety; MOD_RES (5)..(5) N-amination of the amino acid amide moiety; MOD_RES (6)..(6) C-term amidation)”, for which the isolated yield was 28%.
